Results published in paper PMC12431657, “Discovery and mechanistic insights of dibenzoylmethane as a broad spectrum inhibitor of coronavirus” (PLOS Pathogens, 2025).
Where two headings read alike, the source gives them in different places. Screen size: about 3,300 compounds; about 60 (2%) showed an effect of 50% or more. This is one part of the list.

Test system: HCoV-OC43
Set-up: species or system RD; HTS, protection from HCoV-OC43 induced cell death, luminescent cell viability (CellCounting-Lite 2.0), inhibition rate
Conditions: 24 h post infection, 1 h compound pre-incubation, 10 µM, inhibitor

Compound | OC43 Inhibition rate [%] | OC43 Inhibition rate (OC43 Inhibition rate, 24 h) [%]
CC1(C)[C@H](O)CC[C@@]2(C)[C@@H]3CC[C@](C)([C@@H](O)CO[C@@H]4O[C@H](CO)[C@@H](O)[C@H](O)[C@H]4O)C=C3CC[C@H]12 [Darutoside] | 1.8 | 
CN1C(=O)/C(=C2/C(=O)Nc3ccccc32)c2ccccc21 [Meisoindigo] | -0.3 | 
CO[C@@H]1O[C@H](CO)[C@H](O)[C@H](O)[C@H]1O [Methyl β-D-Galactopyranoside] | -6.2 | 
COC(=O)C1=CC[C@@]23CC[C@@H]([C@@](C)(/C=C/C=C(\C)C(=O)O)OC2=O)[C@@]3(OC(C)=O)CC1 [Pseudolaric Acid B] | 0.7 | 
C=C1C(=O)O[C@@H]2/C=C(\C)[C@@H](OC(C)=O)C/C=C(\COC(C)=O)C[C@@H](OC(=O)/C(C)=C/CO)[C@@H]12 [Eupalinolide B] |  | 1.7
COc1cc(-c2cc(=O)c3c(O)cc(O)cc3o2)cc(OC)c1O [Tricin] | 1.1 | 
O=C(O)CNC(=O)Cc1ccccc1 [2-(2-Phenylacetamido)acetic acid] | -3.6 | 
O=C(O[C@H]1[C@H](Oc2c(-c3ccc(O)c(O)c3)oc3cc(O)cc(O)c3c2=O)O[C@H](CO)[C@H](O)[C@@H]1O)c1cc(O)c(O)c(O)c1 [2"-O-Galloylhyperin] | -1.9 | 
O=c1c(O[C@@H]2O[C@H](CO)[C@@H](O)[C@H](O)[C@H]2O)c(-c2ccc(O)cc2)oc2cc(O)cc(O)c12 [Astragalin] | -0.6 | 
COc1cc(-c2oc3cc(O)cc(O)c3c(=O)c2O[C@@H]2O[C@H](CO)[C@@H](O)[C@H](O)[C@H]2O[C@@H]2O[C@@H](C)[C@H](O)[C@@H](O)[C@H]2O)ccc1O [Isorhamnetin-3-O-neohespeidoside] | -0.1 | 
CCCCCC[C@@H](O)C/C=C\CCCCCCCC(=O)O [Ricinoleic acid] | -0.2 | 
C[C@@H]1O[C@@H](O[C@H]2[C@H](Oc3cc(O)c4c(=O)cc(-c5ccc(O)cc5)oc4c3)O[C@H](CO)[C@@H](O)[C@@H]2O)[C@H](O)[C@H](O)[C@H]1O [Rhoifolin] | 3 | 
CC(C)=CCc1c(O)ccc2ccc(=O)oc12 [Osthenol] | 6.4 | 
C[C@H](O)[C@@H](O)[C@@H](O)[C@H](O)CO [L-Fucitol] | 3.3 | 
CSSSC [Dimethyl trisulfide] | -0.3 | 
O=C(O)C(CO)c1ccccc1 (centres unmarked) [Tropic acid] | 0.5 | 
O=C(O)C(O)Cc1ccccc1 (racemic) [DL-3-Phenyllactic acid] | -0.2 | 
OC[C@H]1O[C@H](O)[C@H](O)[C@@H](O)[C@@H]1O [alpha-D-glucose] | -0.6 | 

Compound | OC43 Inhibition rate [%] | OC43 Inhibition rate (OC43 Inhibition rate, 24 h) [%]
CO[C@]1(CC[C@@H](C)CO[C@@H]2O[C@H](CO)[C@@H](O)[C@H](O)[C@H]2O)O[C@H]2C[C@H]3[C@@H]4CC=C5C[C@@H](O[C@@H]6O[C@H](CO)[C@@H](O[C@@H]7O[C@@H](C)[C@H](O)[C@@H](O)[C@H]7O)[C@H](O)[C@H]6O[C@@H]6O[C@@H](C)[C@H](O)[C@@H](O)[C@H]6O)CC[C@]5(C)[C@H]4CC[C@]3(C)[C@H]2[C@@H]1C [Methyl protodioscin] | -9 | 
CC(C)=CCNc1ncnc2nc[nH]c12 [6-(γ,γ-Dimethylallylamino)purine] | 1.4 | 
CC(=O)O[C@H]1CC/C(C)=C/CC/C(C)=C/C[C@]2(C(C)C)CC[C@@]1(C)O2 [Incensole Acetate] | 0 | 
CCCCCCCCCCCCCCCCCCCCCCCCCCCCC [Nonacosane] | -0.1 | 
Cc1cc(O)c2c(=O)c3c(O)cc(O)c4c5c(O)cc(O)c6c(=O)c7c(O)cc(C)c8c1c2c(c34)c(c78)c65 [Hypericin] | 23.9 | 
C[C@]12CC[C@@H]3c4ccc(O)cc4CC[C@H]3[C@@H]1CC[C@H]2O [Alpha-Estradiol] | -0.1 | 
CCCCCCCCCC(=O)NCc1ccc(O)c(OC)c1 [N-Vanillyldecanamide] | -0.1 | 
C/C=C1/CN2[C@@H]3C[C@@]45c6ccccc6N[C@]4(O3)[C@@H]2C[C@@H]1[C@H]5C(=O)OC [Picrinine] | 0 | 
C[C@@H]1CC[C@]2(C(=O)O)CC[C@]3(C)C(=CC[C@@H]4[C@@]5(C)CC[C@H](O)[C@](C)(C(=O)O)[C@@H]5CC[C@]43C)[C@@H]2[C@]1(C)O [Ilexgenin A] | 0.7 | 
C[C@@H]1O[C@@H](O[C@H]2[C@H](O[C@H]3CC[C@@]4(C)[C@@H](CC[C@]5(C)[C@@H]4CC=C4[C@@H]6CC(C)(C)CC[C@]6(C(=O)O[C@@H]6O[C@H](CO[C@@H]7O[C@H](CO)[C@@H](O[C@@H]8O[C@@H](C)[C@H](O)[C@@H](O)[C@H]8O)[C@H](O)[C@H]7O)[C@@H](O)[C@H](O)[C@H]6O)CC[C@]45C)[C@]3(C)CO)OC[C@H](O)[C@@H]2O)[C@H](O)[C@H](O)[C@H]1O [Hederacoside C] | -0.4 | 
c1cc2c(cc1O[C@H]1OC[C@H]3[C@@H]1CO[C@@H]3c1ccc3c(c1)OCO3)OCO2 [Sesamolin] | -1.4 | 
COc1ccc([C@H]2OC[C@H]3[C@@H]2CO[C@H]3c2cc(OC)c(OC)c(OC)c2)cc1OC [Epimagnolin A] | -0.7 | 
COC(=O)c1ccccc1C(=O)O [Monomethyl phthalate] | -0.1 | 
CC(C)=CCC/C(C)=C/CC/C(C)=C/CC/C(C)=C/CC/C(C)=C/CC/C(C)=C/CC/C(C)=C/CC/C(C)=C/CC/C(C)=C/CO [Solanesol] | 6.4 | 
O=C1O[C@H]([C@@H](O)CO)C(O)=C1O [L-Ascorbic acid] |  | 0.3
C/C=C(/C)C(=O)O[C@@H]1c2c(ccc3ccc(=O)oc23)OC(C)(C)[C@@H]1OC(C)=O [Pteryxin] | -0.2 | 
O=c1c(-c2ccc(O)cc2)coc2c([C@@H]3O[C@H](CO)[C@@H](O)[C@H](O)[C@H]3O)c(O)ccc12 [Puerarin] | 1.4 | 

Three entries already listed, arranged by SMILES length, descending:
Compound | OC43 Inhibition rate [%] | OC43 Inhibition rate (OC43 Inhibition rate, 24 h) [%]
C[C@@H]1CC[C@]2(C(=O)O)CC[C@]3(C)C(=CC[C@@H]4[C@@]5(C)CC[C@H](O)[C@](C)(C(=O)O)[C@@H]5CC[C@]43C)[C@@H]2[C@]1(C)O [Ilexgenin A] | 0.7 | 
O=c1c(-c2ccc(O)cc2)coc2c([C@@H]3O[C@H](CO)[C@@H](O)[C@H](O)[C@H]3O)c(O)ccc12 [Puerarin] | 1.4 | 
C/C=C(/C)C(=O)O[C@@H]1c2c(ccc3ccc(=O)oc23)OC(C)(C)[C@@H]1OC(C)=O [Pteryxin] | -0.2 | 
